Reference: the supplement of paper PMC10849652
This is one part of the list.

Sequences of proteins named here, by UniProt entry; tags and fusion partners are left off. A change or cut given only in a name is not applied to a line headed by its entry.
UniProt P07311: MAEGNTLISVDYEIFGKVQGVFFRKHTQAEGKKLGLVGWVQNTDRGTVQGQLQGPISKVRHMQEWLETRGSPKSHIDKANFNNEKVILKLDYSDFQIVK
UniProt P30520: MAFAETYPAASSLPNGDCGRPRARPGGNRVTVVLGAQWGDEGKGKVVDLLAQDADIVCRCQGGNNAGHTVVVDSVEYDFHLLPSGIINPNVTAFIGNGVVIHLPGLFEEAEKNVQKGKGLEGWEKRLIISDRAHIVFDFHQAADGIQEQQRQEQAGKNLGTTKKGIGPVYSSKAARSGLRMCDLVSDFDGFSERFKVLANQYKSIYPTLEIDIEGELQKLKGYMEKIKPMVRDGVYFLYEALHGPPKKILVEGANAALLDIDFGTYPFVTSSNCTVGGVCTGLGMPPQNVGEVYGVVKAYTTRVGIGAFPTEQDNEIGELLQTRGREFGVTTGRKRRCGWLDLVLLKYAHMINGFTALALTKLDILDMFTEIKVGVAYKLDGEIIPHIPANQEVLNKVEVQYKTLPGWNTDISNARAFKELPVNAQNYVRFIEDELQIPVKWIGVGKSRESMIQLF
UniProt Q86V24: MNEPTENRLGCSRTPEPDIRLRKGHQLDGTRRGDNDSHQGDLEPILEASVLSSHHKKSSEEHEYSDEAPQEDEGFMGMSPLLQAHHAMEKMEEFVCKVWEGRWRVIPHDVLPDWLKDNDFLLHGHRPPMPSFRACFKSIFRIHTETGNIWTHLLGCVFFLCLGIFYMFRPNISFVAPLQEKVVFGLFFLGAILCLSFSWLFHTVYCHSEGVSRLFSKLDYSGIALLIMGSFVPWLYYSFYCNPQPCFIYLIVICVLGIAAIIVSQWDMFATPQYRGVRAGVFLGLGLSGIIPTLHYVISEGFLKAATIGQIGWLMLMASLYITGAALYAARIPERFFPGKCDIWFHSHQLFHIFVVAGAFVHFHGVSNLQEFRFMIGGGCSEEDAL
UniProt P33121: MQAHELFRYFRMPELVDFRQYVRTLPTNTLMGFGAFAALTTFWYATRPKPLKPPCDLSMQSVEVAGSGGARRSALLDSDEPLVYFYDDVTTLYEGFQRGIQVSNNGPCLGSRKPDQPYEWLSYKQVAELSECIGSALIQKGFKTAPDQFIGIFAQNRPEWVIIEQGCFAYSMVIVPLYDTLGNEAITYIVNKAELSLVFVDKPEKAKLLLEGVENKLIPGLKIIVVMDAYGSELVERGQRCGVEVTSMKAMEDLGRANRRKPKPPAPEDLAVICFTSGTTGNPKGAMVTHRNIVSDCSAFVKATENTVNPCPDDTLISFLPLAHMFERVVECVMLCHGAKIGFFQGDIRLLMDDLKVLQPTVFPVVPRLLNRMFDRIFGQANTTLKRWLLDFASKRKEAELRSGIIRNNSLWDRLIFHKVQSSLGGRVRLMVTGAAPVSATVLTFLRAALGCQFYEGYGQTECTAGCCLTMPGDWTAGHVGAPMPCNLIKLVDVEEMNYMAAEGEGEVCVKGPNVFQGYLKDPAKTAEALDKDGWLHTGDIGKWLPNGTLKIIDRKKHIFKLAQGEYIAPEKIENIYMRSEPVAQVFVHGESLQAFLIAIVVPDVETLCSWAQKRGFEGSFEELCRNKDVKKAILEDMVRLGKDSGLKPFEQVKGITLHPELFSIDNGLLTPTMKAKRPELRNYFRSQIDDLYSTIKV
UniProt P24666: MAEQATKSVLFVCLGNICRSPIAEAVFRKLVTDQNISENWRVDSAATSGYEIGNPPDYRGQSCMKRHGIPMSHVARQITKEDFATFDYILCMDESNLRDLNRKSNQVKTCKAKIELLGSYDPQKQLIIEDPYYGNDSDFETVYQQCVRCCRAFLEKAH
UniProt P30566: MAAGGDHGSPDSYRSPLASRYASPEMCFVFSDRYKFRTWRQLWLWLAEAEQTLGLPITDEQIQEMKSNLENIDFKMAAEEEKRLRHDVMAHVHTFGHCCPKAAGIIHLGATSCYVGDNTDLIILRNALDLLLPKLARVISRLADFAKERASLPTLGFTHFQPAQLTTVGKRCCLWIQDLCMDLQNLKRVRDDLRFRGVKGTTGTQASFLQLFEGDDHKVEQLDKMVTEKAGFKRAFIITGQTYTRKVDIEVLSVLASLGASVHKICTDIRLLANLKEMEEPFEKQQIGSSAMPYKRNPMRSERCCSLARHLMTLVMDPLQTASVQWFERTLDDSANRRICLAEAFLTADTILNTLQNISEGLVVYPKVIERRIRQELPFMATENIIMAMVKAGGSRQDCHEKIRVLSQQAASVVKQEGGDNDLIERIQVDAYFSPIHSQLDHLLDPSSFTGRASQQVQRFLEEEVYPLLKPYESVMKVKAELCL
UniProt P61163, whole entry, looked up: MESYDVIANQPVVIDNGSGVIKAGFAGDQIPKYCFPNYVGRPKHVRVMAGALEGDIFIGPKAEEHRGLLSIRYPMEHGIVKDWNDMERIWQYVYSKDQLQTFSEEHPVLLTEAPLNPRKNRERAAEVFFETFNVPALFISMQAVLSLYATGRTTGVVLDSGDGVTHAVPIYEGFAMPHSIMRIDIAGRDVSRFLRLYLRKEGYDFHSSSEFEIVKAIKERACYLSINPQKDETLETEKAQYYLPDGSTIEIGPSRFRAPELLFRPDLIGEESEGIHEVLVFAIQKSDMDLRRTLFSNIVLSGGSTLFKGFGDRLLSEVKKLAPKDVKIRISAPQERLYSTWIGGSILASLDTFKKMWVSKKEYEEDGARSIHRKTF
UniProt Q99996, whole entry, looked up: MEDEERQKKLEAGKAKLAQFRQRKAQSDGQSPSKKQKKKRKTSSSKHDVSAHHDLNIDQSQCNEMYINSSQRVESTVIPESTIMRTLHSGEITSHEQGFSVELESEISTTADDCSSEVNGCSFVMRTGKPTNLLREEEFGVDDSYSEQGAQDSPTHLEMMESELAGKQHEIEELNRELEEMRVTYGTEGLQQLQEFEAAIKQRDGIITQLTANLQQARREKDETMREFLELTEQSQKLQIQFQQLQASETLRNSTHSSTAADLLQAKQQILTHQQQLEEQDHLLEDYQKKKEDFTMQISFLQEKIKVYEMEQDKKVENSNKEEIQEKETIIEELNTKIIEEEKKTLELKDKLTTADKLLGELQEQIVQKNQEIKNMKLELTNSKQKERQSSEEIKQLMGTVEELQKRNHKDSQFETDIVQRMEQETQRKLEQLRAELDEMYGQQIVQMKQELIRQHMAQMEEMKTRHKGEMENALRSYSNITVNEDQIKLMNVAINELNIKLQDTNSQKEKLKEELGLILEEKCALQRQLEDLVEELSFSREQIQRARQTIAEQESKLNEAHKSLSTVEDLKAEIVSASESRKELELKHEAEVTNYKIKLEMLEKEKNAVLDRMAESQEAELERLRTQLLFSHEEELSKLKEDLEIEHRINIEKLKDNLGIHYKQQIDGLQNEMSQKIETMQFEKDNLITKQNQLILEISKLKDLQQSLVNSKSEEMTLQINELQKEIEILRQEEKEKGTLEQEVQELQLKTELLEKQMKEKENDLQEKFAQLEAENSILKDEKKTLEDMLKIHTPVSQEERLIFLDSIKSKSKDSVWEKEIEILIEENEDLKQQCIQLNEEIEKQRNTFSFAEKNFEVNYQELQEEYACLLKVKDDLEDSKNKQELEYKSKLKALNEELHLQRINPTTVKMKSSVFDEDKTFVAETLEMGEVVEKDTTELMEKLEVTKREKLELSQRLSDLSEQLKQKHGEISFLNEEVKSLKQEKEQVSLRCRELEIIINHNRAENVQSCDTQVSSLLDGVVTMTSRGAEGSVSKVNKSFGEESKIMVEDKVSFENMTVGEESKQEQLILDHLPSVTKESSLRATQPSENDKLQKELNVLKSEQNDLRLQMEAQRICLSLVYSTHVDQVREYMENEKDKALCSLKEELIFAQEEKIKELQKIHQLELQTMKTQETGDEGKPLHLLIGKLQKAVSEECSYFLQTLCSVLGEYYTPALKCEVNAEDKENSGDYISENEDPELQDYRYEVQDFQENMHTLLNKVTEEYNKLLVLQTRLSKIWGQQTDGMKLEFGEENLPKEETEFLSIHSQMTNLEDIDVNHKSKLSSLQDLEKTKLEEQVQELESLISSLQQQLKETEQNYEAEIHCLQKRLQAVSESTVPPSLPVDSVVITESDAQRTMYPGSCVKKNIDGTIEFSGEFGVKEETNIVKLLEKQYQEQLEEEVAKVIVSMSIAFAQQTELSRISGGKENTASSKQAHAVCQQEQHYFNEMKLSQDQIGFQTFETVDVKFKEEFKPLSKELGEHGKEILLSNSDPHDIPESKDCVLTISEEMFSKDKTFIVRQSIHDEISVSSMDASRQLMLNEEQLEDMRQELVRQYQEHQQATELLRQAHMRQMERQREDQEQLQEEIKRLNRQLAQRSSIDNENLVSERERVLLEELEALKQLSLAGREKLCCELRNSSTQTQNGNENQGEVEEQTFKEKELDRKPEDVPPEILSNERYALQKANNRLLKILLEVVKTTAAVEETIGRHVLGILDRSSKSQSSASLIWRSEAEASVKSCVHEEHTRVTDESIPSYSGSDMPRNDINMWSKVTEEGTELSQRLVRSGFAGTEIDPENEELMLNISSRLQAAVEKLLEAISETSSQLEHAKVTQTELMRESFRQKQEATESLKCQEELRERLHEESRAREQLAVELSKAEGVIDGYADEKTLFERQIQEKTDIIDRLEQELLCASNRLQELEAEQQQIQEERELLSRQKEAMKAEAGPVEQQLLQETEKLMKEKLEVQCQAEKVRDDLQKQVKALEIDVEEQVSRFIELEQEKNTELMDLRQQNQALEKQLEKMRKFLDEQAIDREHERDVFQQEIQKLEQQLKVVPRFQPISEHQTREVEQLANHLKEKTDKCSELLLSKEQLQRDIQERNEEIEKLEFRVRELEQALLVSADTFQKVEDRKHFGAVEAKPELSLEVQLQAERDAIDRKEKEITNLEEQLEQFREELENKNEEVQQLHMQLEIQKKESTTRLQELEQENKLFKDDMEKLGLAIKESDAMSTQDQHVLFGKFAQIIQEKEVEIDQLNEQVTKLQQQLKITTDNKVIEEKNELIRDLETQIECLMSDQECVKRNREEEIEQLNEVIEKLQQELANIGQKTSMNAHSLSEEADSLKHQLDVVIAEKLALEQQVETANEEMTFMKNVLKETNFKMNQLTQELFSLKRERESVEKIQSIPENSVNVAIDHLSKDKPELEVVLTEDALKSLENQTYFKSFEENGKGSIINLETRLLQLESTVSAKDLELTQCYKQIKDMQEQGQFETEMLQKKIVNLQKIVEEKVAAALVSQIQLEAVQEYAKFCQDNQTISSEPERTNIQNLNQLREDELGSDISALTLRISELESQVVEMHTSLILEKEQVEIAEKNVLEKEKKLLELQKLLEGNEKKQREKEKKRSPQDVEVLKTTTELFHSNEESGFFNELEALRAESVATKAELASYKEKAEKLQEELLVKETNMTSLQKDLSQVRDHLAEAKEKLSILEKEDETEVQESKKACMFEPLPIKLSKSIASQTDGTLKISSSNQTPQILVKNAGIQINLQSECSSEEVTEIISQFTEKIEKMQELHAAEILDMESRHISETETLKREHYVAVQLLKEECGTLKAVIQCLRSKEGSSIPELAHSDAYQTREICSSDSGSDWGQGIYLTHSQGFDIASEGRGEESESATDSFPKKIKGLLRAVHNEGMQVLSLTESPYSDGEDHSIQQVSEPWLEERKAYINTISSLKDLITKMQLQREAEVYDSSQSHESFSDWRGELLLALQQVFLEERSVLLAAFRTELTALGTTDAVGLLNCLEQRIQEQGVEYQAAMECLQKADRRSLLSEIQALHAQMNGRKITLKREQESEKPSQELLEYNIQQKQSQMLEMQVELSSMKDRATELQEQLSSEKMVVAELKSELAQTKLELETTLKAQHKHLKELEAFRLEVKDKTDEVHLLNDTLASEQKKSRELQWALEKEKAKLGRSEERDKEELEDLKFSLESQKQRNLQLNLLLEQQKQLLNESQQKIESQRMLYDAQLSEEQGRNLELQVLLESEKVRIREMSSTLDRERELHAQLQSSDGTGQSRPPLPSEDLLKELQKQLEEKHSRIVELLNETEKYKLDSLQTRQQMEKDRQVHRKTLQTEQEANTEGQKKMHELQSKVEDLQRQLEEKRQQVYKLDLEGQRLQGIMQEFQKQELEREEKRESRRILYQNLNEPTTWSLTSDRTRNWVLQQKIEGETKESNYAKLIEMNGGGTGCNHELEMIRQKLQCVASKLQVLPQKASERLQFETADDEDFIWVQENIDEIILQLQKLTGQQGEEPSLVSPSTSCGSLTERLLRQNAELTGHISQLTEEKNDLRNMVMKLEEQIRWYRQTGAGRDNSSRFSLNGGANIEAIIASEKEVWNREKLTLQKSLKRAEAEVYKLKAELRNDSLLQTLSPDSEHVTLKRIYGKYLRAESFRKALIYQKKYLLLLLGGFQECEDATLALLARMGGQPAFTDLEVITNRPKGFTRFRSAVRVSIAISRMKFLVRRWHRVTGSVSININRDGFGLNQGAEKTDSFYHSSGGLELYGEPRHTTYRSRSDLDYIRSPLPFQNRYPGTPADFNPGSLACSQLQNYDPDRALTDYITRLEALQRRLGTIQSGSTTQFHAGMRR

Columns and labels:
Test in all cases: log2 fold change, soluble protein after heating vs DMSO (PISA); higher = thermal stabilisation; K562 lysate, 10 uM; active = over 0.2 and 3.5 SD of the protein, either way, in both replicates (recomputed)
[1] = compound: C#Cc1cccc(Nc2ncnc3cc(OCCOC)c(OCCOC)cc23)c1 [erlotinib]
In short: (§1)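 Pellets of K562 cells were dounce-homogenised in PBS pH 7.4 with 1 mM MgCl2, and the crude extract was held at 1 mg/mL protein for a 30 min treatment with 10 μM compound. Aliquots were heated for 3 min over 48°C-58°C and pooled before NP-40 was added to 0.5% at 4°C. The supernatant from 21,000xg for 90 min was quantified by TMTpro 16plex LC-MS/MS with channel sums equalised. Values are reported from duplicates as log-two fold change in thermal stability relative to solvent controls.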

[2] = compound: C/C(=N\NC(=O)C1=CC(=CC=C1)S(=O)(=O)N2CCOCC2)/C3=C(C=CC(=C3)Cl)O
In short: as §1

[3] = compound: C1=CC(=CC=C1C2=NC3=C(N2)C=C(C=C3)C(=O)N)OC4=CC=C(C=C4)Cl
In short: as §1

[4] = compound: C1=CC2=C(C=CC(=C2)/C=C\3/C(=O)NC(=NCC4=CC=CS4)S3)N=C1
In short: as §1

[5] = compound: C1=CC2=NC=CN=C2C=C1/C=C/3\C(=O)NC(=O)S3
In short: as §1

[6] = compound: C1=CC=C(C=C1)C2=NC(=C(N2)C3=CC=NC=C3)C4=CC(=C(C=C4)Cl)O
In short: as §1

[7] = compound: C1=CC=C2C(=C1)C3=NNC4=CC=CC(=C43)C2=O
In short: as §1

[8] = compound: C1CCN(C1)C(=O)NC2=CC=CC(=C2)NC3=NC=C(C(=N3)NCCC4=CN=CN4)Br
In short: as §1

[9] = compound: C1CN(CCC1(CC2=CC=C(C=C2)Cl)N)C3=NC=NC4=C3C=CN4
In short: as §1

[10] = compound: C1COCCN1CCN2C3=CC=CC=C3N=C2NC(=O)C4=CC(=CC=C4)[N+](=O)[O-] [IRAK-1-4 Inhibitor I]
In short: as §1

[11] = compound: C=CC(=O)N1CCC[C@@H](n2nc(-c3ccc(Oc4ccccc4)cc3)c3c(N)ncnc32)C1 [ibrutinib]
In short: as §1

[12] = compound: CC(=O)c1cnc2ccc(-c3cc(Cl)c(O)c(Cl)c3)nc2c1N[C@H]1CC[C@H](CN(C)C)CC1
In short: as §1

[13] = compound: CC(C)(C)Cn1c(N)nc2ccc(-c3[nH]c(C(C)(C)C)nc3-c3ccc(F)cc3)nc21 [ralimetinib]
In short: as §1

[14] = compound: CC(C)(O)CC(=O)NCCn1ccc2ncnc(Nc3ccc(Oc4cccc(C(F)(F)F)c4)c(Cl)c3)c21
In short: as §1

[15] = compound: CC(C)C1=C2N=C(C=C(N2N=C1)NCC3=CC=CC=C3)NCCCCCCN
In short: as §1

[16] = compound: CC1=C(C(CC(=O)N1)C2=CC=C(C=C2)C(F)(F)F)C(=O)NC3=C(C=C4C(=C3)C=NN4)F
In short: as §1

[17] = compound: CC1=C(C2=C(C=C1)C(=O)C3=CC=CC=C3N2CCCN)C
In short: as §1

[18] = compound: CC1=C(C=C(C=C1)NC(=O)C2=CC(=CC=C2)C(C)(C)C#N)NC3=CC4=C(C=C3)N=CN(C4=O)C
In short: as §1

[19] = compound: CC1=C(C=C(C=C1)NC(=O)C2=CC(=CC=C2)N(C)C)NC(=O)C3=CC=C(C=C3)O
In short: as §1

[20] = compound: CC1=CC=C(C=C1)SC2=C3C=C(SC3=CN=C2)C(=O)N
In short: as §1

Measured: log2 fold change

ACYP1 (UniProt P07311)
inactive: [1] -0.032 | [2] 0.028 | [3] -0.007 | [4] -0.02 | [5] -0.008 | [6] -0.017 | [7] -0.01 | [8] 0.024 | [9] -0.004 | [10] 0.013 | [11] 0.056 | [12] 0.027 | [13] 0 | [14] -0.024 | [15] -0.011 | [16] -0.021 | [17] 0.015 | [18] -0.013 | [19] -0.024 | [20] 0.021

ADSS2 (UniProt P30520)
inactive: [1] -0.023 | [2] -0.009 | [3] 0.043 | [4] -0.017 | [5] 0.012 | [6] 0.025 | [7] -0.002 | [8] 0.006 | [9] -0.004 | [10] 0.045 | [11] -0.003 | [12] -0.009 | [13] 0.023 | [14] 0.011 | [15] -0.003 | [16] -0.023 | [17] 0 | [18] -0.001 | [19] -0.006 | [20] 0

ADO (UniProt Q96SZ5)
inactive: [1] 0.013 | [2] -0.004 | [3] 0 | [4] -0.019 | [5] -0.013 | [6] 0.015 | [7] 0.015 | [8] -0.006 | [9] 0.004 | [10] 0.011 | [11] 0.032 | [12] 0.002 | [13] -0.035 | [14] 0.01 | [15] 0.053 | [16] 0.01 | [17] -0.041 | [18] 0.032 | [19] -0.012 | [20] -0.034

ADIPOR2 (UniProt Q86V24)
inactive: [1] 0.032 | [2] -0.115 | [3] 0.037 | [4] 0 | [5] -0.287 | [6] -0.043 | [7] -0.227 | [8] 0.057 | [9] 0.078 | [10] 0.069 | [11] 0.156 | [12] 0.019 | [13] 0.046 | [14] 0.066 | [15] -0.036 | [16] -0.03 | [17] -0.042 | [18] -0.029 | [19] -0.067 | [20] -0.055

ACSL1 (UniProt P33121)
inactive: [1] 0.02 | [2] -0.104 | [3] -0.153 | [4] 0.086 | [5] 0.051 | [6] 0.025 | [7] -0.04 | [8] 0.009 | [9] 0.012 | [10] 0.022 | [11] 0.009 | [12] 0.008 | [13] -0.004 | [14] -0.075 | [15] 0.01 | [16] 0.024 | [17] 0.004 | [18] -0.01 | [19] 0.026 | [20] -0.004

ADA (UniProt P00813)
inactive: [1] -0.009 | [2] -0.005 | [3] -0.007 | [4] -0.005 | [5] -0.01 | [6] 0.012 | [7] 0.001 | [8] -0.008 | [9] 0.01 | [10] 0.044 | [11] 0.001 | [12] 0.008 | [13] 0.003 | [14] -0.065 | [15] 0.044 | [16] -0.023 | [17] 0.027 | [18] 0.044 | [19] -0.021 | [20] -0.024

ACP1 (UniProt P24666)
inactive: [1] 0.044 | [2] 0.081 | [3] -0.008 | [4] -0.023 | [5] 0.035 | [6] 0.041 | [7] 0.033 | [8] 0.023 | [9] 0.028 | [10] -0.031 | [11] -0.002 | [12] 0.047 | [13] -0.021 | [14] -0.009 | [15] 0.009 | [16] -0.063 | [17] 0 | [18] 0.027 | [19] 0.064 | [20] -0.016

AKAP1 (UniProt Q92667)
inactive: [1] -0.001 | [2] -0.006 | [3] 0.023 | [4] -0.024 | [5] -0.031 | [6] 0.004 | [7] -0.024 | [8] 0.002 | [9] 0.093 | [10] -0.002 | [11] 0.008 | [12] -0.03 | [13] 0.002 | [14] -0.011 | [15] -0.01 | [16] -0.044 | [17] 0.016 | [18] -0.014 | [19] 0.015 | [20] 0.023

ADSL (UniProt P30566)
inactive: [1] -0.01 | [2] -0.038 | [3] 0.052 | [4] -0.009 | [5] -0.005 | [6] -0.009 | [7] 0.015 | [8] 0.011 | [9] 0.02 | [10] 0.007 | [11] 0.002 | [12] 0.007 | [13] -0.008 | [14] 0.002 | [15] -0.006 | [16] -0.016 | [17] -0.019 | [18] -0.038 | [19] 0.004 | [20] -0.007

Copied from the results shown (two entries):
ACP1 (UniProt P24666)
inactive: [1] 0.044 | [2] 0.081 | [3] -0.008 | [4] -0.023 | [5] 0.035 | [6] 0.041 | [7] 0.033 | [8] 0.023 | [9] 0.028 | [10] -0.031 | [11] -0.002 | [12] 0.047 | [13] -0.021 | [14] -0.009 | [15] 0.009 | [16] -0.063 | [17] 0 | [18] 0.027 | [19] 0.064 | [20] -0.016

AKAP1 (UniProt Q92667)
inactive: [1] -0.001 | [2] -0.006 | [3] 0.023 | [4] -0.024 | [5] -0.031 | [6] 0.004 | [7] -0.024 | [8] 0.002 | [9] 0.093 | [10] -0.002 | [11] 0.008 | [12] -0.03 | [13] 0.002 | [14] -0.011 | [15] -0.01 | [16] -0.044 | [17] 0.016 | [18] -0.014 | [19] 0.015 | [20] 0.023

The list continues.

ACTA1 (UniProt P68133)
inactive: [1] 0 | [2] 0.012 | [3] 0.017 | [4] -0.024 | [5] -0.035 | [6] -0.02 | [7] -0.037 | [8] 0.015 | [9] 0.051 | [10] -0.016 | [11] -0.021 | [12] 0 | [13] -0.006 | [14] -0.018 | [15] 0.037 | [16] -0.03 | [17] -0.005 | [18] -0.011 | [19] 0.01 | [20] -0.002

ADAT3 (UniProt Q96EY9)
inactive: [1] -0.029 | [2] 0.013 | [3] -0.024 | [4] -0.041 | [5] 0.009 | [6] 0.019 | [7] -0.059 | [8] 0.136 | [9] -0.022 | [10] 0.045 | [11] 0.033 | [12] 0.059 | [13] 0.058 | [14] -0.017 | [15] -0.031 | [16] 0.006 | [17] -0.015 | [18] -0.015 | [19] -0.031 | [20] -0.009

AGO2 (UniProt Q9UKV8)
inactive: [1] -0.03 | [2] -0.024 | [3] -0.003 | [4] -0.001 | [5] -0.004 | [6] 0.003 | [7] -0.011 | [8] 0.006 | [9] -0.01 | [10] 0.01 | [11] 0 | [12] -0.017 | [13] 0.016 | [14] -0.018 | [15] -0.03 | [16] 0.003 | [17] -0.017 | [18] -0.023 | [19] -0.012 | [20] -0.019

AGO4 (UniProt Q9HCK5)
inactive: [1] -0.038 | [2] -0.008 | [3] 0.031 | [4] -0.02 | [5] -0.031 | [6] 0.009 | [7] -0.015 | [8] 0.009 | [9] 0.016 | [10] -0.009 | [11] 0.034 | [12] -0.035 | [13] 0.022 | [14] -0.011 | [15] -0.049 | [16] 0.025 | [17] 0.05 | [18] 0 | [19] -0.013 | [20] -0.024

ACTR1A (UniProt P61163)
inactive: [1] -0.027 | [2] 0.041 | [3] 0.031 | [4] -0.026 | [5] 0.01 | [6] 0 | [7] 0.009 | [8] -0.009 | [9] 0.009 | [10] 0.018 | [11] 0 | [12] -0.005 | [13] 0.013 | [14] -0.004 | [15] 0.001 | [16] 0.024 | [17] 0.006 | [18] -0.009 | [19] -0.038 | [20] -0.001

AKAP12 (UniProt Q02952)
inactive: [1] 0.095 | [2] -0.155 | [3] -0.101 | [4] -0.096 | [5] 0.098 | [6] -0.008 | [7] -0.005 | [8] 0.095 | [9] 0.175 | [10] 0.047 | [11] 0.056 | [12] -0.06 | [13] -0.063 | [14] 0.031 | [15] 0.083 | [16] -0.17 | [17] 0.049 | [18] 0.003 | [19] -0.073 | [20] -0.01

AKAP9 (UniProt Q99996)
inactive: [1] -0.019 | [2] -0.037 | [3] 0.009 | [4] -0.038 | [5] 0.024 | [6] 0.019 | [7] -0.083 | [8] -0.014 | [9] -0.006 | [10] -0.018 | [11] 0.003 | [12] -0.114 | [13] 0.022 | [14] -0.042 | [15] 0.009 | [16] 0.009 | [17] 0.001 | [18] -0.006 | [19] 0.011 | [20] -0.122
